Values as published with doi:10.1371/journal.pone.0140310, rounded.

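The test systems are human melanoma cell lines, treated with a pair of drugs for 72 h and then stained and imaged. The read-out is the fraction of cleaved-PARP-positive nuclei, in % of that fraction in the DMSO control; 200 means twice the control level of this apoptosis marker. Every drug was used at one fixed concentration, the higher of two screened. No replicate spread is given; individual values may be noisy. The marker varies much from line to line, for technical or biological reasons.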 This is part of the screen, not chosen by result.

Compounds and concentrations:
fingolimod: CCCCCCCCc1ccc(CCC(N)(CO)CO)cc1 at 10 µM
lapatinib: CS(=O)(=O)CCNCc1ccc(-c2ccc3ncnc(Nc4ccc(OCc5cccc(F)c5)c(Cl)c4)c3c2)o1 at 4 µM
ABT-263: CC1(C)CCC(c2ccc(Cl)cc2)=C(CN2CCN(c3ccc(C(=O)NS(=O)(=O)c4ccc(N[C@H](CCN5CCOCC5)CSc5ccccc5)c(S(=O)(=O)C(F)(F)F)c4)cc3)CC2)C1 at 2 µM
ZM336372: Cc1ccc(NC(=O)c2cccc(N(C)C)c2)cc1NC(=O)c1ccc(O)cc1 at 10 µM
MK-1775: C=CCn1c(=O)c2cnc(Nc3ccc(N4CCN(C)CC4)cc3)nc2n1-c1cccc(C(C)(C)O)n1 at 0.1 µM
PF-04217903: OCCn1cc(-c2cnc3nnn(Cc4ccc5ncccc5c4)c3n2)cn1 at 5 µM
etoposide: COc1cc([C@@H]2c3cc4c(cc3[C@@H](O[C@@H]3O[C@@H]5CO[C@@H](C)O[C@H]5[C@H](O)[C@H]3O)[C@H]3COC(=O)[C@H]23)OCO4)cc(OC)c1O at 0.1 µM
BMS-536924: Cc1cc(N2CCOCC2)cc2[nH]c(-c3c(NC[C@@H](O)c4cccc(Cl)c4)cc[nH]c3=O)nc12 at 1 µM
A-769662: N#Cc1c(O)c2c(-c3ccc(-c4ccccc4O)cc3)csc2[nH]c1=O at 10 µM

With MK-1775 and lapatinib the screen read C32: 87.4; MEL-HO: 99.0.
With lapatinib and etoposide the screen read C32: 148; MEL-HO: 345.
With BMS-536924 and ABT-263 the screen read C32: 215; MEL-HO: 59.6.
With ZM336372 and A-769662 the screen read C32: 197; MEL-HO: 112.
With etoposide and MK-1775 the screen read C32: 159; MEL-HO: 67.5.
With fingolimod and ZM336372 the screen read C32: 1740; MEL-HO: 3170.
With BMS-536924 and ZM336372 the screen read C32: 39.4; MEL-HO: 70.9.
With MK-1775 and PF-04217903 the screen read C32: 102; MEL-HO: 70.9.
With ABT-263 and PF-04217903 the screen read C32: 229; MEL-HO: 50.5.
With A-769662 and BMS-536924 the screen read C32: 174; MEL-HO: 89.5.
With fingolimod and A-769662 the screen read C32: 1130; MEL-HO: 1150.
With etoposide and A-769662 the screen read C32: 84.6; MEL-HO: 223.
With PF-04217903 and BMS-536924 the screen read C32: 142; MEL-HO: 59.2.
With ZM336372 and ABT-263 the screen read C32: 150; MEL-HO: 219.
With MK-1775 and BMS-536924 the screen read C32: 346; MEL-HO: 43.2.
With ABT-263 and A-769662 the screen read C32: 77.0; MEL-HO: 73.9.
With fingolimod and BMS-536924 the screen read C32: 2140; MEL-HO: 2350.
With PF-04217903 and lapatinib the screen read C32: 141; MEL-HO: 79.6.
With lapatinib and BMS-536924 the screen read C32: 451; MEL-HO: 92.3.
With PF-04217903 and etoposide the screen read C32: 257; MEL-HO: 62.1.
With MK-1775 and ABT-263 the screen read C32: 438; MEL-HO: 62.6.
With ABT-263 and etoposide the screen read C32: 478; MEL-HO: 209.
With fingolimod and etoposide the screen read C32: 1270; MEL-HO: 531.
With PF-04217903 and fingolimod the screen read C32: 6460; MEL-HO: 228.
With A-769662 and PF-04217903 the screen read C32: 196; MEL-HO: 23.2.
With ZM336372 and lapatinib the screen read C32: 86.4; MEL-HO: 215.
With ZM336372 and MK-1775 the screen read C32: 84.7; MEL-HO: 82.7.
With lapatinib and A-769662 the screen read C32: 78.2; MEL-HO: 107.
With ZM336372 and PF-04217903 the screen read C32: 70.2; MEL-HO: 67.3.
With lapatinib and fingolimod the screen read C32: 105; MEL-HO: 9610.
With A-769662 and MK-1775 the screen read C32: 96.9; MEL-HO: 98.3.
With etoposide and BMS-536924 the screen read C32: 197; MEL-HO: 68.8.

Once more, the final 3:

Drugs,C32,MEL-HO
lapatinib and fingolimod,105,9610
A-769662 and MK-1775,96.9,98.3
etoposide and BMS-536924,197,68.8